# Measurements from US20090018142A9, “Use of phosphatases to treat tumors overexpressing N-CoR” (priority 2006, published 2009).
# At least one compound was matched to its structure with a doubt left.
# Tested on: GBM cell line U343 MG-A
# Test: Growth of GBM cell line U343 MG-A, cell counts over 16 days
# Assay type: cell-based, human
# Details: 50 μM retinoic acid and/or 10 nM okadaic acid
# Description: Finally, the GBM cell line U343 MG-A was treated with 50 μM of retinoic acid (RA) and/or 10 nM of okadaic acid (OA), a protein phosphatase-1 inhibitor.
# Three cultures for each of four treatments were grown for 16 days with cell counts obtained at baseline and for each of the eight even numbered days. Log transformations were applied to the cell counts, and repeated measures of analysis of variance model used to evaluate the treatment differences over time. Pair wise treatment comparisons used Sidak's statistic to account for multiple testing.
structure (smiles),measurement,setting,value
"CC1=C(/C=C/C(C)=C/C=C/C(C)=C/C(=O)O)C(C)(C)CCC1 [Retinoic acid, retinoic acid]",Course of cell counts over time (in words),16 days,monotonically increased
same,Effect on cell growth (in words),16 days (FIG. 2C),modest effect on cell growth
